The target in the test is BcellWH2_04512 (BcPL33^HA), PL33_1 hyaluronidase from Bacteroides cellulosilyticus WH2 (Bacteroides cellulosilyticus WH2). Put plainly: crystal structure; apo crystal structures of BtPL33^HA and BcPL33^HA; dimer interface analysed with PISA; both purified.

No constants are given. Whether binding was seen depends on the method and setting. Some results given as binding are weak or reduced against the parent protein; the word gives no strength. Where a sequence is shown, tags or fusion partners need not be part of it.

B1: BcellWH2_04512 (BcPL33^HA), PL33_1 hyaluronidase from Bacteroides cellulosilyticus WH2 (enzyme)
chain: YTERNLLQKAAGSEEQLKEALVMNQKWVPYPAYNDRAGWNELLGTNKESLIRAGEKMLNYEWKVIRATDYLEYERSGERNIMQNPYEANRKAINALMLAELAEGKGRFIDQLINGAFYSCEMTSWVLSAHLVRQSTKRSLPDYREQVIDLGSGNFGSMLSWVYYFFHDSFDKIDPVISQRLRHTLQERILDPYMNNDREWWMAFQWKPGMIINNWNPWCNSNVLQCYLLLENDRDRLAKAVWRSMQSVDKFINFVKADGACEEGPSYWGHAAGKMYDYLQILSDGTDGKVSLFKEPMIRRMGEYISRTYVGNGWVVNFADASAKGGGDAPLIYRYGRAVGSEEMMQFAAYLLDGKRPSVPLGNDTFRSLQSILWNGELEKTTAAHTIPACTWYPETEFCYLTNKSGWFLATKGGFNNESHNHNDVGTFSLYVNTIPVLIDAGVGTYTRQTFSSERYTIWTMQSNYHNLPMINGVPQSFGQNYKATDVVCQPKKRFFSANIATAYPKEAEVNSWTRAYSLGDKQLTITDNFSLKSAKESNQVNFLTWGKVDISVPGKVTIDVQGQKVTLEYPGEFTATVETINLPDTRLSNVWGTEIYRIALKDKDARLTGKYKFVIK
notes: BcellWH2_04512, polysaccharide lyase family 33 subfamily 1 hyaluronidase of Bacteroides cellulosilyticus WH2; 68% identical to BtPL33^HA; Cloned in pET28a with either an N- or a C-terminal His6 tag; source: E. coli BL21 (DE3) or TUNER, purified (Talon cobalt IMAC, S200 Superdex SEC)
Regarding B1, the binding entry was “binds”.

These data come from paper PMC11848413, “Bacterial polysaccharide lyase family 33: Specificity from an evolutionarily conserved binding tunnel” (Proceedings of the National Academy of Sciences of the …, 2025).
